From PMC6515668, “Liposomes for effective drug delivery to the ocular posterior chamber” (Journal of Nanobiotechnology, 2019)
Counter-ions that a name gives are not always drawn.

Assay: Microdialysis probe recovery and stability (dialysis and retrodialysis)
Details: perfusate normal saline with 30% ethanol, 1.5 μL/min
Protocol: Normal saline containing 30% ethanol was chosen as the perfusate for two drugs with opposing polarity, and the flow rate was 1.5 μL/min according to our previous study. Then, an in vitro RR% evaluation was performed via dialysis and retrodialysis. The in vivo stability study was performed using a retrodialysis method, which provided the evidence for the microdialysis method that was used for the in vivo pharmacokinetics study.

Cc1cc(O)c2c(c1)C(=O)c1cccc(O)c1C2=O [CHR, chrysophanol]
recovery rates (RR %): 51.42 ± 4.256%

COc1ccc2cc3[n+](cc2c1OC)CCc1cc2c(cc1-3)OCO2 [BBH, berberine hydrochloride]
recovery rates (RR %): 29.7 ± 6.352%
